The source of these data is publication PMC7524712.

Assay [1] concerns the target T1, GST-vdUTPase_(201–280) (herpes simplex virus 1, strain F) (UniProt P10234).
T1 sequence: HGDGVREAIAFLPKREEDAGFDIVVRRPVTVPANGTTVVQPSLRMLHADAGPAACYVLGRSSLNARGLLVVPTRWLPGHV
Description: pull-down; purified GST proteins immobilised on glutathione-sepharose resin, lysate of HEK293FT cells transfected with pFLAG-iUL49, 1 h at 4 °C, 0.5% NP-40 buffer; anti-Flag immunoblot; only the target purified. A general note: In western blotting, separated proteins are transferred to a membrane and probed.

The target in assay [2] is T2, GST-vdUTPase_(281–371) (herpes simplex virus 1, strain F) (UniProt P10234).
T2 sequence: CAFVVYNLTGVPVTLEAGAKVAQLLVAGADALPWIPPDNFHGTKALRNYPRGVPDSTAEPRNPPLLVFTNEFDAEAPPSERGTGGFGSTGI
The assay is described as above.

In assay [3] the target is T3, HSV-1 dUTPase (vdUTPase) (herpes simplex virus 1, strain F) (UniProt P10234).
T3 sequence: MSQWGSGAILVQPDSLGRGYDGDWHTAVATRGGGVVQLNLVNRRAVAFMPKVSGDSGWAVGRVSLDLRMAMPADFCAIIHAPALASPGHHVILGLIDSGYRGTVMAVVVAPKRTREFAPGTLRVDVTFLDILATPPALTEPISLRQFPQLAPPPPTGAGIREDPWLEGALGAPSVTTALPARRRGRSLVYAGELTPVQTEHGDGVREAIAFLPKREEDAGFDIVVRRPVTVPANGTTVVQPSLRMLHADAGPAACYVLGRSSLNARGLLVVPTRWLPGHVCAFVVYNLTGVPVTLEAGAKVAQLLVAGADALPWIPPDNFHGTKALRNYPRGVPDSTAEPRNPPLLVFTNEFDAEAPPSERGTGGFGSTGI
Description: proximity ligation; Duolink PLA in fixed Vero cells infected with MEF-iUL49 at an MOI of 10 for 12 h; primary antibodies to vdUTPase and Flag.

The target of assay [4] is T1, GST-vdUTPase_(201–280) (herpes simplex virus 1, strain F). Description: pull-down; purified GST, GST-vdUTPase_(201–280) or GST-vdUTPase_(281–371) immobilised on glutathione-sepharose resin, purified SE-piUL49 or SE-piUL49R83L in solution, 1 h at 4 °C, washed with 0.5% NP-40 buffer; immunoblot; both purified.
The target of assay [5] is T2, GST-vdUTPase_(281–371) (herpes simplex virus 1, strain F). The assay is described as above.
Assay [6] has as its target T4, vdUTPase tagged with Strep-tag (SE-vdUTPase) (herpes simplex virus 1, strain F) (UniProt P10234).
T4 sequence: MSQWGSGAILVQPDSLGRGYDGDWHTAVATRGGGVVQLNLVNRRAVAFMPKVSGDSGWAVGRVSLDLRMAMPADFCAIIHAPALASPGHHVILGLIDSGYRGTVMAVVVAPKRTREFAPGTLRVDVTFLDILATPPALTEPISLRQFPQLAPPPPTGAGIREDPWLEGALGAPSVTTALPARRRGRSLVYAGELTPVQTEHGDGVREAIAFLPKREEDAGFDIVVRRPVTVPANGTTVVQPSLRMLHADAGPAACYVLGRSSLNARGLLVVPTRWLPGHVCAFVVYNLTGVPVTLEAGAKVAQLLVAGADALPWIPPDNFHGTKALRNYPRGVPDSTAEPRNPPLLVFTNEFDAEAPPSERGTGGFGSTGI
In words: co-IP; Strep-tag affinity precipitation: lysates (0.5% NP-40 buffer, 150 mM NaCl) of Vero cells infected at an MOI of 10 for 12 h, Strep-Tactin sepharose beads, 4 °C, 1.5 h; immunoblot.

In assay [7] the target is GST-piUL49 (herpes simplex virus 1, strain F). Description: pull-down; purified GST-piUL49 or GST-piUL49R83L immobilised on glutathione-sepharose resin, purified 6xHis-SUMO-vdUTPase or 6xHis-SUMO-vUNG in solution, 1 h at 4 °C, washed with 0.5% NP-40 buffer; immunoblot; both purified.

Results are given in words; binding and its absence hold for the method and conditions named. For some of these results: Binding can be weak; no strength is given. For some of these results: Where a sequence is shown, tags or fusion partners need not be part of it. For some of these results: In cells and extracts the contact can be indirect.

As to “Flag-piUL49 (herpes simplex virus 1, strain F)”, the figures for the binding entry in assay [1] and in assay [2] were “binds” and “no binding”, respectively.

“MEF-piUL49 (herpes simplex virus 1, strain F)”: the binding entry in assay [3] was “binds”.

Consider “SE-piUL49 (herpes simplex virus 1, strain F)”, for which the values for the binding entry in assay [4] and in assay [5] were “binds” and “no binding”, respectively.

In the case of “piUL49 (product of the iUL49 CDS of HSV-1) (herpes simplex virus 1, strain F)”, the binding result in assay [6] was “binds”.

B1: 6xHis-SUMO-vdUTPase (enzyme, UniProt P10234 1-371)
chain: MSQWGSGAILVQPDSLGRGYDGDWHTAVATRGGGVVQLNLVNRRAVAFMPKVSGDSGWAVGRVSLDLRMAMPADFCAIIHAPALASPGHHVILGLIDSGYRGTVMAVVVAPKRTREFAPGTLRVDVTFLDILATPPALTEPISLRQFPQLAPPPPTGAGIREDPWLEGALGAPSVTTALPARRRGRSLVYAGELTPVQTEHGDGVREAIAFLPKREEDAGFDIVVRRPVTVPANGTTVVQPSLRMLHADAGPAACYVLGRSSLNARGLLVVPTRWLPGHVCAFVVYNLTGVPVTLEAGAKVAQLLVAGADALPWIPPDNFHGTKALRNYPRGVPDSTAEPRNPPLLVFTNEFDAEAPPSERGTGGFGSTGI
On to B1, for which the binding entry in assay [7] was “binds”.
